Data as given in the supplement of paper PMC10331698.
± gives the standard deviation of the averaged measurements. Most entries show no effect beyond the scatter of the controls.

Columns and labels:
Experiment in all cases: level (log10 ratio to DMSO vehicle control); higher = higher biomarker level / cell amount than vehicle control
Pentafluoropropionamide = compound: NC(=O)C(F)(F)C(F)(F)F [Pentafluoropropionamide]; conditions: 2200 nM; in DMSO
Method: (§1)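 BioMAP Diversity Plus panel of 12 human primary cell co-culture systems (3C, 4H, LPS, SAg, BT, BF4T, BE3C, CASM3C, HDF3CGF, KF3CT, MyoF, Mphg). Compounds were added 1 h before stimulation and left for 24 h (MyoF 48 h; BT 72 h for soluble read-outs or 6 d for IgG). Biomarkers were read by ELISA, cytotoxicity by SRB, PBMC viability and proliferation by Alamar Blue. Each well value was divided by the mean of 8 DMSO control wells on the same plate and log10 transformed; duplicate blinded samples were tested at 4 concentrations.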

[1] = compound: COC(=O)C(F)(F)C(F)(F)OC(F)(C(F)(F)F)C(F)(F)OC(F)=C(F)F [Methyl perfluoro(3-(1-ethenyloxypropan-2-yloxy)propanoate)]; conditions: in DMSO
Method: as §1

[2] = compound: O=C(O)C(F)(F)C(F)(F)C(F)F [4H-Perfluorobutanoic acid]; conditions: in DMSO
Method: as §1

[3] = compound: NS(=O)(=O)C(F)(F)C(F)(F)C(F)(F)C(F)(F)C(F)(F)C(F)(F)C(F)(F)C(F)(F)F [Perfluorooctanesulfonamide]; conditions: in DMSO
Method: as §1

[4] = compound: NC(=O)C(F)(F)C(F)(F)C(F)(F)C(F)F; conditions: in DMSO
Method: as §1

[5] = compound: OCC(F)(F)C(F)(F)C(F)(F)C(F)(F)C(F)(F)C(F)F [1H,1H,7H-Dodecafluoro-1-heptanol]; conditions: 2200 nM; in DMSO
Method: as §1

[6] = compound: O=P(O)(O)CCC(F)(F)C(F)(F)C(F)(F)C(F)(F)C(F)(F)C(F)(F)F [2-(Perfluorohexyl)ethylphosphonic acid]; conditions: 2200 nM; in DMSO
Method: as §1

Heptafluorobutyl iodide = compound: FC(F)(F)C(F)(F)C(F)(F)CI [Heptafluorobutyl iodide]; conditions: 2200 nM; in DMSO
Method: as §1

[7] = compound: FC(F)(F)C(F)(F)C(F)(F)CC1CO1 [1H,1H-Heptafluorobutyl epoxide]; conditions: 2200 nM; in DMSO
Method: as §1

[8] = compound: O=S(=O)(OCC(F)(F)F)C(F)(F)C(F)(F)C(F)(F)C(F)(F)F [2,2,2-Trifluoroethyl perfluorobutanesulfonate]; conditions: 2200 nM; in DMSO
Method: as §1

[9] = compound: O=S(=O)(O)C(F)(F)C(F)(F)C(F)(F)C(F)(F)C(F)(F)C(F)(F)C(F)(F)C(F)(F)F [Perfluorooctanesulfonic acid]; conditions: 2200 nM; in DMSO
Method: as §1

[10] = compound: O=S(=O)(F)C(F)(F)C(F)(F)C(F)(F)C(F)(F)C(F)(F)C(F)(F)C(F)(F)C(F)(F)F [Perfluorooctanesulfonyl fluoride]; conditions: 2200 nM; in DMSO
Method: as §1

[11] = compound: OCCCCC(F)(F)C(F)(F)C(F)(F)C(F)(F)F [4:4 Fluorotelomer alcohol]; conditions: 2200 nM; in DMSO
Method: as §1

[12] = compound: C=C(C)C(=O)OCC(F)(F)C(F)(F)C(F)(F)C(F)(F)C(F)(F)C(F)(F)C(F)(F)F; conditions: in DMSO
Method: as §1

[13] = compound: C=CC(F)(F)C(F)(F)C(F)(F)C(F)(F)C(F)(F)C(F)(F)C(F)(F)C(F)(F)C=C [1,8-Divinylperfluorooctane]; conditions: in DMSO
Method: as §1

[14] = compound: C=CC(=O)OCC(F)(F)C(F)(F)C(F)(F)C(F)(F)C(F)(F)C(F)(F)C(F)(F)F [1H,1H-Perfluorooctyl acrylate]; conditions: 2200 nM; in DMSO
Method: as §1

[15] = compound: O=S(=O)(O)C(F)(F)C(F)(F)C(F)(F)C(F)(F)C(F)(F)C(F)(F)C(F)(F)C(F)(F)F [Potassium perfluorooctanesulfonate]; conditions: 2200 nM; in DMSO
Method: as §1

[16] = compound: CO[Si](C)(CCC(F)(F)C(F)(F)C(F)(F)C(F)(F)C(F)(F)C(F)(F)F)OC [Dimethoxymethyl((perfluorohexyl)ethyl)silane]; conditions: in DMSO
Method: as §1

Test System	level (log10) (Pentafluoropropionamide)	level (log10) ([1]; 740 nM)	level (log10) ([1]; 2200 nM)	level (log10) ([2]; 2200 nM)	level (log10) ([2]; 6700 nM)	level (log10) ([2]; 20000 nM)	level (log10) ([2]; 60000 nM)	level (log10) ([3]; 2200 nM)	level (log10) ([3]; 6700 nM)	level (log10) ([3]; 20000 nM)	level (log10) ([4]; 2200 nM)	level (log10) ([4]; 6700 nM)	level (log10) ([4]; 20000 nM)	level (log10) ([4]; 60000 nM)	level (log10) [5]	level (log10) [6]	level (log10) (Heptafluorobutyl iodide)	level (log10) [7]	level (log10) [8]	level (log10) [9]	level (log10) [10]	level (log10) [11]	level (log10) ([12]; 740 nM)	level (log10) ([12]; 2200 nM)	level (log10) ([13]; 740 nM)	level (log10) ([13]; 2200 nM)	level (log10) [14]	level (log10) [15]	level (log10) ([16]; 740 nM)	level (log10) ([16]; 2200 nM)
CASM3C:LDLR	0.0415 ± 0.046	0.0005 ± 0.012	0.0025 ± 0.005	-0.0595 ± 0.0078	-0.0785 ± 0.037	-0.039 ± 0.0042	-0.0235 ± 0.026	0.007 ± 0.02	-0.0095 ± 0.011	-0.0165 ± 0.0078	-0.001 ± 0.0042	-0.008	-0.006 ± 0.024	0.031 ± 0.042	0.008 ± 0.059	-0.0085 ± 0.023	0.0075 ± 0.013	-0.0065 ± 0.022	0.0085 ± 0.053	0.0175 ± 0.046	0.0005 ± 0.016	0.0425 ± 0.018	0.0265 ± 0.059	0.0005 ± 0.021	0.0265 ± 0.032	-0.0005 ± 0.00071	0.0105 ± 0.012	0.039 ± 0.047	0.0165 ± 0.025	-0.005 ± 0.013
CASM3C:M-CSF	0.019 ± 0.028	0.0065 ± 0.012	-0.0115 ± 0.0021	0.05 ± 0.023	0.004 ± 0.045	-0.009 ± 0.016	0.059 ± 0.027	0.037 ± 0.038	0.022	0.04 ± 0.0099	0.012 ± 0.05	-0.0485 ± 0.021	-0.0535 ± 0.046	0.019 ± 0.082	0.002 ± 0.03	0.002 ± 0.02	0.0025 ± 0.049	-0.003 ± 0.018	0.008 ± 0.044	0.015 ± 0.045	0.0095 ± 0.0064	0.0505 ± 0.025	0 ± 0.076	-0.022 ± 0.0071	0.0155 ± 0.033	-0.0265 ± 0.028	-0.0165 ± 0.00071	0.0345 ± 0.079	0.0145 ± 0.044	-0.012 ± 0.0099
CASM3C:PAI-I	-0.0065 ± 0.016	-0.003 ± 0.0057	-0.003 ± 0.0099	0.015 ± 0.0057	0.009 ± 0.0071	0.006 ± 0.0071	0.0075 ± 0.0021	0.003 ± 0.0071	0.012 ± 0.0057	0.0055 ± 0.011	-0.004 ± 0.024	-0.005 ± 0.021	-0.003 ± 0.0085	-0.008 ± 0.0099	0.013 ± 0.0099	0.0005 ± 0.0078	-0.01 ± 0.0057	-0.0045 ± 0.0035	-0.0015 ± 0.0035	0.0075 ± 0.012	0.0015 ± 0.015	0.0165 ± 0.00071	-0.0025 ± 0.0035	-0.0155 ± 0.0064	0.0005 ± 0.0021	0 ± 0.0085	0 ± 0.013	0.0165 ± 0.019	0.0115 ± 0.029	-0.012 ± 0.0057
CASM3C:Proliferation	-0.0195 ± 0.013	-0.014 ± 0.048	-0.0115 ± 0.0078	0.022 ± 0.033	0.0045 ± 0.011	-0.0185 ± 0.066	0.0045 ± 0.04	-0.0155 ± 0.071	-0.027 ± 0.0085	0.0415 ± 0.032	-0.0155 ± 0.081	0.002 ± 0.071	-0.0145 ± 0.023	0.014 ± 0.025	0.007 ± 0.0042	-0.0445 ± 0.021	0.0175 ± 0.013	-0.0715 ± 0.061	-0.008 ± 0.0085	0.0035 ± 0.0035	-0.0105 ± 0.0021	-0.004 ± 0.033	-0.053 ± 0.044	0.0265 ± 0.0064	-0.0385 ± 0.018	-0.0595 ± 0.12	-0.003 ± 0.037	-0.007 ± 0.0099	0.0075 ± 0.032	0.0325 ± 0.016
CASM3C:SRB	0.002	0.002 ± 0.013	0.0055 ± 0.0021	-0.0015 ± 0.0064	-0.0015 ± 0.0078	-0.002 ± 0.0071	0 ± 0.0099	0.005	0.0075 ± 0.011	-0.0075 ± 0.0021	-0.0095 ± 0.0064	0.0025 ± 0.00071	-0.0115 ± 0.005	-0.0085 ± 0.016	-0.001 ± 0.0057	0.0075 ± 0.0021	-0.0015 ± 0.00071	0.0025 ± 0.012	-0.0065 ± 0.005	0.003	-0.0025 ± 0.0021	0.013 ± 0.0099	0.009 ± 0.0099	-0.001 ± 0.0071	-0.0025 ± 0.005	-0.0035 ± 0.0035	-0.002	0.0015 ± 0.00071	0 ± 0.0014	-0.002 ± 0.0028
CASM3C:Serum Amyloid A	0.0145 ± 0.012	-0.0155 ± 0.025	0.0265 ± 0.016	-0.0305 ± 0.037	-0.056 ± 0.038	-0.083 ± 0.055	-0.0715 ± 0.11	0.0105 ± 0.0035	0.0055 ± 0.028	0.012 ± 0.047	-0.0115 ± 0.12	-0.054 ± 0.071	-0.0535 ± 0.026	-0.003 ± 0.024	-0.0165 ± 0.012	0.0065 ± 0.025	-0.004 ± 0.034	-0.0145 ± 0.029	-0.016 ± 0.12	0.036 ± 0.079	0.0305 ± 0.0021	0.033 ± 0.075	0.0095 ± 0.011	-0.0055 ± 0.0035	0.005 ± 0.031	0.006 ± 0.025	0.0275 ± 0.011	0.039 ± 0.079	-0.001 ± 0.05	-0.0205 ± 0.00071
HDF3CGF:CCL2/MCP-1	-0.01 ± 0.0028	-0.0035 ± 0.005	0.024 ± 0.0028	0.0005 ± 0.0021	-0.0385 ± 0.021	-0.018 ± 0.051	0.049 ± 0.0071	0.0145 ± 0.021	-0.0105 ± 0.0064	-0.567 ± 0.14	0.0165 ± 0.069	-0.017 ± 0.054	-0.004 ± 0.04	0.0095 ± 0.028	0.039 ± 0.05	-0.0325 ± 0.033	-0.0035 ± 0.013	-0.0125 ± 0.044	-0.007 ± 0.034	0.0075 ± 0.018	-0.0025 ± 0.044	-0.006	-0.0105 ± 0.005	-0.022 ± 0.013	-0.025 ± 0.025	-0.018 ± 0.02	-0.0315 ± 0.039	0.0105 ± 0.018	-0.0135 ± 0.013	-0.0255 ± 0.026
HDF3CGF:CD54/ICAM-1	0.014 ± 0.024	-0.0045 ± 0.011	-0.0065 ± 0.018	-0.0085 ± 0.018	0.009 ± 0.021	0.013 ± 0.0099	0.0035 ± 0.005	-0.018 ± 0.0014	-0.021 ± 0.0042	-0.88 ± 0.26	-0.005 ± 0.0042	-0.0045 ± 0.0064	0.0045 ± 0.0035	0.001 ± 0.0071	0.009 ± 0.018	0.0455 ± 0.047	-0.004 ± 0.0085	-0.0135 ± 0.018	-0.006	-0.015 ± 0.0014	-0.014 ± 0.0071	-0.0155 ± 0.015	-0.017 ± 0.031	-0.0205 ± 0.0064	-0.0135 ± 0.039	-0.0045 ± 0.032	-0.022 ± 0.0085	-0.001 ± 0.0028	-0.001 ± 0.0099	-0.013 ± 0.028
